Source: PubChem BioAssay (EPA / NIEHS)
Where “and” joins values, the source holds several entries; their conditions need not be identical. Identical values can stand only once. The shares of active, inactive and inconclusive entries below differ from those in the screen. A potency beside an inconclusive call is a rough fit, not a confirmed value. More than one record can exist for a structure, and the calls need not agree. Calls of active or inactive are those of the source. The calls were made as follows: active = hit-call score of the fitted dose curve at least 0.9, where 1 is the maximum; inconclusive = response in the unintended direction; inactive = score below 0.9. Positions of bridges follow the written chain, without caps; N, C: chain ends. Non-standard residues stand in square brackets, D forms with d. Residues, ends and D or L forms follow the SMILES beside them. *: point of attachment. Ileψ(thiazoline)Cys = CC[C@H](C)[C@H](N)C1=N[C@H](C(=O)*)CS1; dOrn = NCCC[C@@H](N)C(=O)O

Amino acid sequences for entries named in this document (tags omitted).
UniProt P04637, whole entry, looked up: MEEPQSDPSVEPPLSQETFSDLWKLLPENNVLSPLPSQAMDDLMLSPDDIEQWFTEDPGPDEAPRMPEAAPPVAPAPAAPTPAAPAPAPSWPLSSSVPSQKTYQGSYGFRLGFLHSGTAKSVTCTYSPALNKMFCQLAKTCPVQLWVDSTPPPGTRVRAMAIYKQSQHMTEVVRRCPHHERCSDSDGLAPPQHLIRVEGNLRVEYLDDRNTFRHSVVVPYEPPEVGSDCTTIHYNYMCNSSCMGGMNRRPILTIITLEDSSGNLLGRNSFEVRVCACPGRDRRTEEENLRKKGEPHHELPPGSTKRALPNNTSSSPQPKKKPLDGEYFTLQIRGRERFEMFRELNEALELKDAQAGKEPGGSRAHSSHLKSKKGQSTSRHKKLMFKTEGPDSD

Tested on: not listed separately
Experiment: TOX21_p53_BLA_p4_viability: Viability Assessment in the Tox21 HCT-116 p53 Agonism Beta-lactamase Assay, Phase 4 (AID 2283597);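 also: hits lower the luminescence signal meaning cytotoxicity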
Procedure, shortened: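 In this multiplexed secondary endpoint, HCT116 cells (4000 per well, compound at 5 h, 16 h treatment) received CellTiter-Glo after the beta-lactamase read. Luminescence after 30 min RT reflects ATP, and falling signal marks cytotoxicity.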

SMILES | outcome | AC50
N#CCC(=O)NN | inactive | 
CC(=O)SC[C@@H](C)C(=O)N1CCC[C@H]1C(=O)N[C@@H](Cc1ccccc1)C(=O)O |  | inconclusive: 23 µM
CCn1cc(C(=O)O)c(=O)c2cc(F)c(N3CCNC(C)C3)c(F)c21 (stereo not given) |  | inconclusive: 23 µM
CCC(C)=NO[Si](C)(ON=C(C)CC)ON=C(C)CC | inactive | 
CC[C@H](C)[C@H](N)C1=N[C@H](C(=O)N[C@@H](CC(C)C)C(=O)N[C@H](CCC(=O)O)C(=O)N[C@H](C(=O)N[C@H]2CCCCNC(=O)[C@H](CC(N)=O)NC(=O)[C@@H](CC(=O)O)NC(=O)[C@H](Cc3cnc[nH]3)NC(=O)[C@@H](Cc3ccccc3)NC(=O)[C@H]([C@@H](C)CC)NC(=O)[C@@H](CCCN)NC2=O)[C@@H](C)CC)CS1 ({Ileψ(thiazoline)Cys}-L[dE]IK[dOrn]I[dF]H[dD]N; lactam 4-C) |  | inconclusive: 6.96 µM
N#CCC(=O)O |  | inconclusive: 0.858 µM
CN1C(C(=O)Nc2ccccn2)=C(O)c2ccccc2S1(=O)=O |  | inconclusive: 46.4 µM and inconclusive: 0.0816 nM
NNCCc1ccccc1 |  | active: 74.1 µM
O=Cc1cccc([N+](=O)[O-])c1 | inactive | 

Molecular target: Cellular tumor antigen p53 (Homo sapiens) (UniProt P04637)
Experiment: TOX21_p53_BLA_p5_ratio: Tox21 HCT-116 p53 Agonism Beta-lactamase Assay, Ratio, Phase 5 (AID 2283599)
Procedure, shortened: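 HCT-116 cells carrying a p53-inducible beta-lactamase reporter were seeded at 4000 cells/well and dosed after 5 h with compound in DMSO (217-fold dilution). After 16 h at 37C, CCF4-AM substrate was added for 2 h, and the 460/530 nm emission ratio was scored as gain-of-signal versus DMSO.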

SMILES | AC50 | outcome
CN(CCOc1ccc(NS(C)(=O)=O)cc1)CCc1ccc(NS(C)(=O)=O)cc1 | active: 37.7 µM | 
N#CCC(=O)O | inconclusive: 46.1 µM and inconclusive: 45.3 µM | 
Nc1nc2c(ncn2COCCO)c(=O)[nH]1 |  | inactive
CN1C(C(=O)Nc2ccccn2)=C(O)c2ccccc2S1(=O)=O | inconclusive: 46.4 µM | 

Tested on: not listed separately
Experiment: TOX21_p53_BLA_p5_viability: Viability Assessment in the Tox21 HCT-116 p53 Agonism Beta-lactamase Assay, Phase 5 (AID 2283600)
Procedure, shortened: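 Here cell health was gauged by ATP levels in wells holding 4000 cells, each treated 16 h with DMSO-delivered compounds at 217-fold dilution; reduced luminescence marked toxicity.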

SMILES | outcome | AC50
CC(C)(C)CC(C)(C)c1cc(Cc2cc(C(C)(C)CC(C)(C)C)cc(-n3nc4ccccc4n3)c2O)c(O)c(-n2nc3ccccc3n2)c1 | inactive | 
CCn1cc(C(=O)O)c(=O)c2cc(F)c(N3CCNC(C)C3)c(F)c21 (stereo not given) |  | inconclusive: 23 µM
CCc1ncnc2cc(OC)c(OC)cc12 | inactive | 
CC(CCC(=O)O)C(=O)O (stereo not given) |  | inconclusive: 46.1 µM
Cc1cc(C(=O)O)ccc1[N+](=O)[O-] |  | inconclusive: 46.2 µM
CN1C(C(=O)Nc2ccccn2)=C(O)c2ccccc2S1(=O)=O |  | inconclusive: 46.4 µM
CCOC(=O)c1cccnc1 |  | inconclusive: 23 µM
CC(C)C(=O)OC(=O)C(C)C |  | inconclusive: 46.1 µM
Nc1nc(/C(=C/CC(=O)O)C(=O)N[C@@H]2C(=O)N3C(C(=O)O)=CCS[C@H]23)cs1 |  | inconclusive: 23 µM
CC(CCl)OC(C)CCl (stereo not given) |  | inconclusive: 44.9 µM
C#CCN(C)Cc1ccccc1 |  | inconclusive: 46.1 µM and inconclusive: 0.11 nM
O=C(O)C(=O)Nc1cccc(-c2nn[nH]n2)c1 |  | inconclusive: 23 µM
